We go through 3 molecules from US20070166787A1 (YEDA RESEARCH AND DEVELOPMENT, published 2007).

The chains behind the UniProt entries cited, without tags or fusion partners.
UniProt Q13158: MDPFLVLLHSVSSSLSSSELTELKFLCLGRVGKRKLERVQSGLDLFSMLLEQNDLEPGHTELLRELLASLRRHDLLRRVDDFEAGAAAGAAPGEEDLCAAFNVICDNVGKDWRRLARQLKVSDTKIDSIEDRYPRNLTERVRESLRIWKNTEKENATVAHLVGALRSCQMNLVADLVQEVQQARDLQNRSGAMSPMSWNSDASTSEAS

Test [1] has as its target T1, DD of TRADD (amino acids 195-312) fused at its N-terminus with the FLAG octapeptide or the HA epitope, expressed in HeLa cells (human) (UniProt Q15628).
T1 sequence (chain, by the resolver, Metabolically labelled with 35S-Met and 35S-Cys): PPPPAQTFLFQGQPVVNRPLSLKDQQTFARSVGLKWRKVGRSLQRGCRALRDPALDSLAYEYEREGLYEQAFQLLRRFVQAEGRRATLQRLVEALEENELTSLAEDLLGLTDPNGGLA
Put plainly: co-immunoprecipitation from lysates of transfected, 35S-labelled HeLa cells.

The target of test [2] is MORT-1 (bait of a two-hybrid screen) (UniProt Q13158). Put plainly: yeast two-hybrid library screen with MORT-1 as bait (not shown).
Test [3] has as its target full-length MORT-1 fused at its N-terminus with the FLAG octapeptide, expressed in HeLa cells (human) (UniProt Q13158). As to the kind of experiment: co-immunoprecipitation with anti-FLAG (M2) or anti-HA (12CA5), SDS-PAGE, autoradiography.

These are yes or no findings as the source states them, for the method shown. For part of these data: Binding seen in cells or lysates may run through a third protein. Some entries that bind do so weakly or less than the wild type. For part of these data: Tags and fused reporters may be left off the sequences shown.

In the case of “full-length MORT-1 fused at its N-terminus with the FLAG octapeptide, expressed in HeLa cells (from UniProt Q13158 1-208)”, in test [1], the binding result is “binds”.

B1: TRADD (encoded by cDNAs cloned in a two-hybrid screen with MORT-1) (protein, UniProt Q15628 1-312, looked up)
chain: MAAGQNGHEEWVGSAYLFVESSLDKVVLSDAYAHPQQKVAVYRALQAALAESGGSPDVLQMLKIHRSDPQLIVQLRFCGRQPCGRFLRAYREGALRAALQRSLAAALAQHSVPLQLELRAGAERLDALLADEERCLSCILAQQPDRLRDEELAELEDALRNLKCGSGARGGDGEVASAPLQPPVPSLSEVKPPPPPPPAQTFLFQGQPVVNRPLSLKDQQTFARSVGLKWRKVGRSLQRGCRALRDPALDSLAYEYEREGLYEQAFQLLRRFVQAEGRRATLQRLVEALEENELTSLAEDLLGLTDPNGGLA
B1: the binding entry in test [2] is “binds”.

B2: DD of TRADD (amino acids 195-312) fused at its N-terminus with the FLAG octapeptide or the HA epitope, expressed in HeLa cells (protein, not shown: small tags and cut ends)
chain: T1 sequence (chain, by the resolver, Metabolically labelled with 35S-Met and 35S-Cys)
modifications: Metabolically labelled with 35S-Met and 35S-Cys
Take B2: the binding entry in test [3] was “binds”.
